Data on 23 molecules can be found in PubChem BioAssay AID248 (DTP/NCI, 2004).

The list is a part of this screen's results and no random one: it is rich in T/C values a quarter to a half above the control, in often repeated tests (any T/C) and in doses without a T/C. Other doses and runs of a compound stand elsewhere. T/C gives the treated animals as a percentage of the vehicle group. Some entries give survivors of the animals treated and no T/C: the source files T/C as zero there, which appears to mark a toxic dose or a test without result, not a measured value. Some survivor counts are full or nearly so, which does not show that the dose was tolerated: survival well below the control is almost never listed, so the zero probably covers shortened survival too. Survivors were counted at the toxicity check, usually on the fifth day, unless a day is given; later deaths do not show. Schedules are NCI's codes, read here as Q, the interval in days (D) or hours (H), X, the number of doses. Some molecules as drawn cover several salts, stereoisomers or complexes of the source; a dose is that of the sample tested. Some doses were run more than once; their values stand side by side, smallest first. Some schedule codes hold Z or #, which are not explained here. Where survival is the endpoint, the PubChem record calls one and a half times the control and up active, and a quarter to a half above the control has no call in these data; cut-offs in other NCI protocols can differ.

For this assay, the system named is L1210 leukemia ip in BDF1 mice, survival T/C. Kind of assay: NCI In Vivo Anticancer Drug Screen. Data for tumor model L1210 Leukemia (intraperitoneal) in B6D2F1 (BDF1) mice. Conditions: T/C endpoint: mean survival time, higher T/C = longer survival.
Setting [1] is: dose: 100.0 mg/kg/injection, schedule: Q04DX003 (ip), vehicle: Klucel (hydroxypropylcellulose) (HPC).
Where [2] appears, read: dose: 100.0 mg/kg/injection, schedule: Q04DX003 (ip), vehicle: saline.
Setting [3] is: dose: 200.0 mg/kg/injection, schedule: Q04DX003 (ip), vehicle: saline.
The mark [4] stands for this setting: dose: 100.0 mg/kg/injection, schedule: Q01DX009 (ip), vehicle: Klucel (hydroxypropylcellulose) (HPC).
The mark [5] stands for this setting: dose: 200.0 mg/kg/injection, schedule: Q01DX009 (ip), vehicle: Klucel (hydroxypropylcellulose) (HPC).
Where [6] appears, read: dose: 400.0 mg/kg/injection, schedule: Q01DX009 (ip), vehicle: Klucel (hydroxypropylcellulose) (HPC).
The mark [7] stands for this setting: dose: 200.0 mg/kg/injection, schedule: Q04DX002 (ip), vehicle: Klucel (hydroxypropylcellulose) (HPC).
Where [8] appears, read: dose: 200.0 mg/kg/injection, schedule: Q04DX003 (ip), vehicle: Klucel (hydroxypropylcellulose) (HPC).
Setting [9] is: dose: 400.0 mg/kg/injection, schedule: Q04DX003 (ip), vehicle: Klucel (hydroxypropylcellulose) (HPC).
The mark [10] stands for this setting: dose: 200.0 mg/kg/injection, schedule: Q04DX003 (ip), vehicle: saline with Tween-80.
Where [11] appears, read: dose: 400.0 mg/kg/injection, schedule: Q04DX003 (ip), vehicle: saline with Tween-80.

Consider `Cc1cc(C)n(/N=C/c2ccc3c(c2)CCC3)c(=O)c1C#N`, for which, under setting [1], the survivor count is given as 6 of 6.

With `CS(=O)(=O)c1ccc2nnnn2n1`, the survivor count was 1 of 4 (dose: 50.0 mg/kg/injection, schedule: Q04DX003 (ip), vehicle: saline); 0 of 4 under setting [2]; 0 of 4 under setting [3].

For `CN(C)CCC(CN=C(N)N)c1cccc2ccccc12` (configuration not stated), the survivor count reads like this: under setting [4], 0 of 6; (dose: 100.0 mg/kg/injection, schedule: Q04DX002 (ip), vehicle: saline) 1 of 3; under setting [5], 0 of 6; under setting [6], 0 of 6.

With `CN1CC2([N+](=O)[O-])C=CCC([N+](=O)[O-])(C1)C2` (configuration not stated), under “dose: 400.0 mg/kg/injection, schedule: Q01DX009 (ip), vehicle: water”, the survivor count was 3 of 6.

For `O=[N+]([O-])c1ccc(C[Se]c2ncnc3c2ncn3C2OC(CO)C(O)C2O)cc1` (configuration not stated), the survivor count was 1 of 6 (dose: 100.0 mg/kg/injection, schedule: Q01DX005 (ip), vehicle: saline) and 0 of 6 (dose: 200.0 mg/kg/injection, schedule: Q01DX005 (ip), vehicle: saline).

With `O=[N+]([O-])c1ccc(SC2=NCCCN2)c([N+](=O)[O-])c1`, the survivor count is 0 of 3 (dose: 50.0 mg/kg/injection, schedule: Q04DX002 (ip), vehicle: Klucel (hydroxypropylcellulose) (HPC)); 0 of 3 (dose: 100.0 mg/kg/injection, schedule: Q04DX002 (ip), vehicle: Klucel (hydroxypropylcellulose) (HPC)); 0 of 3 under setting [7]; 0 of 3 (dose: 400.0 mg/kg/injection, schedule: Q04DX002 (ip), vehicle: Klucel (hydroxypropylcellulose) (HPC)).

For `COc1cc(C)c(Cl)c(C)c1C#CC(=O)O`, the survivor count (dose: 300.0 mg/kg/injection, schedule: Q01DX009 (ip), vehicle: Klucel (hydroxypropylcellulose) (HPC)) is 0 of 6.

On to `Cn1ccc2c([N+](=O)[O-])cccc2c1=O`, for which the survivor count is 0 of 6 and 1 of 6 under setting [1]; 0 of 6 under setting [8]; 0 of 6 under setting [9].

As to `CN(C)C=Nc1ncnc2[nH]ncc12`, the T/C under setting [10] was 125 % of control. In addition, the survivor count under setting [11] is 1 of 6.

Regarding `c1ccc(-c2ccns2)cc1`, the survivor count (dose: 400.0 mg/kg/injection, schedule: Q01DX001 (ip), vehicle: carboxymethylcellulose (CMC)) is on record as 0 of 4.

With `Cc1cc(=O)c2cccc(C)c2[nH]1`, the survivor count under setting [6] is on record as 1 of 6.

For `[Cl][Cu][Cl]`, the survivor count is 0 of 6 (dose: 25.0 mg/kg/injection, schedule: Q04DX003 (ip), vehicle: saline); 0 of 6 under setting [2]; 0 of 6 under setting [3]; 0 of 6 (dose: 400.0 mg/kg/injection, schedule: Q04DX003 (ip), vehicle: saline).

For the molecule `Nn1cnnc1`, the survivor count was 6 of 6 (dose: 200.0 mg/kg/injection, schedule: Q01DX009 (ip), vehicle: saline) and 4 of 6 (dose: 400.0 mg/kg/injection, schedule: Q01DX009 (ip), vehicle: saline).

As to `O=[N+]([O-])c1cccc(C(O)C=C(C(F)(F)F)C(F)(F)F)c1` (configuration not stated), the survivor count reads like this: under setting [10], 6 of 6; under setting [11], 6 of 6.

For the molecule `O=C(O)CCCCCCCCCCCCCCC(=O)O`, under setting [7], the survivor count is 3 of 3.

In the case of `S=C(NCc1ccc(Cl)c(Cl)c1)Nc1ccccc1`, the survivor count is reported as 6 of 6 under setting [5] and 6 of 6 under setting [6].

As to `COc1cccc2c1C(=O)c1c(O)c3c(c(O)c1C2=O)CC(O)(C(C)=O)CC3OC1CC(N)C(OC2CC(N)C(O)C(C)O2)C(C)O1` (configuration not stated), the T/C is 138 % of control (dose: 2.5 mg/kg/injection, schedule: Q01DX009 (ip), vehicle: saline) and 125 % of control (dose: 5.0 mg/kg/injection, schedule: Q01DX009 (ip), vehicle: saline).

Consider `NC(=Nc1ccccc1)c1ccc(C(N)=Nc2ccccc2)cc1`, for which the survivor count (dose: 120.0 mg/kg/injection, schedule: Q01DX Z (ip), vehicle: carboxymethylcellulose (CMC)) is 0 of 6.

Take `CCC(CCC(C)C1CCC2C3CC=C4CC(O)CCC4(C)C3CCC12C)C(C)C` (configuration not stated) (tested in a mixture with another compound): the survivor count by setting is: (dose: 100.0 mg/kg/injection, schedule: Q01DX001 (ip), vehicle: water) 2 of 6; (dose: 100.0 mg/kg/injection, schedule: Q01DX009 (ip), vehicle: saline with Tween-80) 2 of 6; (dose: 100.0 mg/kg/injection, schedule: Q#A X030 (ip), vehicle: water) 0 of 6; under setting [10], 4 of 6; under setting [11], 1 of 6.

With `COc1ccc(N2C(=O)C=CC2=O)cc1`, the survivor count (dose: 100.0 mg/kg/injection, schedule: Q01DX001 (ip), vehicle: saline with Tween-80) is 0 of 3; the survivor count (dose: 200.0 mg/kg/injection, schedule: Q01DX001 (ip), vehicle: saline with Tween-80) was 0 of 3; the survivor count (dose: 400.0 mg/kg/injection, schedule: Q01DX001 (ip), vehicle: saline with Tween-80) is recorded as 0 of 3.

`Cc1ccc(C(=O)Nc2ccc(OCCCc3c(N)nc(N)nc3N)cc2)cc1S(=O)(=O)F`: the survivor count is recorded as 3 of 6 under setting [1], 1 of 6 under setting [8] and 0 of 6 under setting [9].

On to `C=CC1CNCCC1CC(=O)OCC` (configuration not stated), for which the survivor count (dose: 400.0 mg/kg/injection, schedule: Q01DX001 (ip), vehicle: saline) is recorded as 0 of 6.

On to `O=C1/C(=C\c2ccccc2)C(NC2CCCCC2)c2ccccc21` (configuration not stated), for which the survivor count runs as follows: under setting [4], 0 of 6; under setting [5], 0 of 6; under setting [6], 0 of 6.
